Test results taken from publication PMC4790305, “An FDA-Drug Library Screen for Compounds with Bioactivities against Meticillin-Resistant Staphylococcus aureus (MRSA)” (Antibiotics, 2015).

Tested on: Adult normal human epidermal keratinocytes (NHEK)
Assay: Human epidermal keratinocyte viability (GI50) assay
Assay type: cell-based
Method: Adult normal human epidermal keratinocytes (NHEK) were purchased from Lonza (catalog #00192627, Basel, Switzerland) and cultured in keratinocyte growth medium (Lonza KGM-Gold Bullet Kit) containing growth supplements (Lonza Reagent Pack) at 5% CO2 (37 °C). The cell viability assay was performed using the CellTiter-Glo Luminescent Cell Viability Assay protocol from Promega (www.promega.com, Fitchburg, WI, USA). Briefly, NHEK were treated with test compounds in keratinocyte growth medium in 96-well plates (Thermo Scientific Nunclon Delta, Waltham, MA, USA). Treated cells were incubated for 5 days at 5% CO2 (37 °C). Promega CellTiter-Glo Reagent was added and plates were shaken on an orbital shaker for […]. Next, well contents (100 μL) from each well were transferred into opaque 96-well plates (PerkinElmer OptiPlate-96) and luminescence measured by a microplate reader (Tecan Safire2).

SMILES	fold difference of keratinocyte GI50 compared to MIC against MRSA	fold difference of keratinocyte GI50 compared to MIC against MRSA (GI50 vs MIC (5-Fluorouracil: MIC 6.25 μM; Gemcitabine: MRSA USA300 MIC 0.05 μM)) [fold]
O=c1[nH]cc(F)c(=O)[nH]1 [5-fluorouracil, 5-Fluorouracil]	five-fold	–
Nc1ccn([C@@H]2O[C@H](CO)[C@@H](O)C2(F)F)c(=O)n1 [Gemcitabine]	–	~40

Read-outs that look alike come from different tables or passages of the source.
